Measured data: PubChem BioAssay AID1053208 (Peter MacCallum Cancer Centre, 2014)
Test: 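Find knock-downs that sensitise mouse osteosarcoma cells to doxorubicin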 (primary screen). Cell system: mouse osteosarcoma cells, early-passage culture from an engineered mouse model of fibroblastic bone tumour. Reagent: siRNA pool against mouse genes, 40 nM. Time to read-out: about 120 h (48 h before drug, then 72 h with drug). Challenge: doxorubicin 100 nM for 72 h, roughly 30-40% inhibitory dose. Measured: 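Luminescent ATP signal taken as viability with or without 100 nM doxorubicin for 72 h; mean of two wells set against non-targeting siRNA and turned into robust z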. Direction: viability z-score with doxorubicin: higher = more viable cells under doxorubicin; viability z-score without drug: higher = more viable cells with knock-down alone. Rule for the call: 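a pool counts as active when its viability z-score with doxorubicin is -2 or below and its z-score without drug lies between -2 and 2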.
The whole screen tested about 17,000 reagents; this is a random part of them. Of all reagents, 788 (4.7%) got an active call. 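Calls rest on z-score classes alone; an extra cut-off of viability at most 70% of control was not applied to them.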 Further read-outs or replicates are left out here. No sequences are given here.

What is on record for Ednra?
combined z-score class: no change with or without drug; viability z-score with doxorubicin: -0.45; viability z-score without drug: -1.52; Outcome: inactive

What did the screen give for Or11h4b?
combined z-score class: no change with or without drug; viability z-score with doxorubicin: -0.45; viability z-score without drug: 1.18; Outcome: inactive

With Ubr1, what does the deposit list?
combined z-score class: high cell count without drug only; viability z-score with doxorubicin: 0.9; viability z-score without drug: 2.36; Outcome: inactive

With Vgll2, how do the results read?
combined z-score class: no change with or without drug; viability z-score with doxorubicin: 0.11; viability z-score without drug: 0.84; Outcome: inactive

With Slc5a8, how do the results read?
combined z-score class: no change with or without drug; viability z-score with doxorubicin: 0.22; viability z-score without drug: 1.18; Outcome: inactive

How did the screen score Or1j11?
combined z-score class: no change with or without drug; viability z-score with doxorubicin: -0.45; viability z-score without drug: 0.51; Outcome: inactive

Which result is listed for Cps1?
combined z-score class: no change with or without drug; viability z-score with doxorubicin: -0.34; viability z-score without drug: -0.17; Outcome: inactive

For Skor1, how do the results read?
combined z-score class: no change with or without drug; viability z-score with doxorubicin: 0.56; viability z-score without drug: 0.51; Outcome: inactive

For Cdk5rap1, what was measured?
combined z-score class: no change with or without drug; viability z-score with doxorubicin: 1.57; viability z-score without drug: 0.17; Outcome: inactive

Entries listed so far whose target name starts with S or s:
Slc5a8 → combined z-score class: no change with or without drug; viability z-score with doxorubicin: 0.22; viability z-score without drug: 1.18; Outcome: inactive
Skor1 → combined z-score class: no change with or without drug; viability z-score with doxorubicin: 0.56; viability z-score without drug: 0.51; Outcome: inactive

Next entries follow:
What is on record for Fut2b?
combined z-score class: no change with or without drug; viability z-score with doxorubicin: -0.9; viability z-score without drug: -0.84; Outcome: inactive

How did the screen score Reg3a?
combined z-score class: no change with or without drug; viability z-score with doxorubicin: 0.22; viability z-score without drug: -0.51; Outcome: inactive

For Mpp3, what does the deposit list?
combined z-score class: no change with or without drug; viability z-score with doxorubicin: 0; viability z-score without drug: 1.85; Outcome: inactive

How did the screen score Fkbp5?
combined z-score class: no change with or without drug; viability z-score with doxorubicin: -0.45; viability z-score without drug: 0; Outcome: inactive

Which result is listed for Pik3c2a?
combined z-score class: no change with or without drug; viability z-score with doxorubicin: 1.12; viability z-score without drug: 1.52; Outcome: inactive

For Tbx22, how do the results read?
combined z-score class: no change with or without drug; viability z-score with doxorubicin: -0.22; viability z-score without drug: 0.51; Outcome: inactive

With Parp11, how do the results read?
combined z-score class: no change with or without drug; viability z-score with doxorubicin: 1.01; viability z-score without drug: 1.18; Outcome: inactive

With Mup2, how do the results read?
combined z-score class: no change with or without drug; viability z-score with doxorubicin: -0.67; viability z-score without drug: -0.84; Outcome: inactive

What is on record for Mrpl32?
combined z-score class: no change with or without drug; viability z-score with doxorubicin: 1.35; viability z-score without drug: 0.34; Outcome: inactive

For Krtap12-1, how do the results read?
combined z-score class: no change with or without drug; viability z-score with doxorubicin: -1.12; viability z-score without drug: -1.18; Outcome: inactive
